Results deposited as PubChem BioAssay AID602196 (INSERM, 2012)

Purpose: 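Knock-downs that protect lung cancer cells from cisplatin or sensitise them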
Cell system: human A549 lung cancer cells
Reagent: siRNA pair against human genes
Time to read-out: 48 h transfection before cisplatin; time from cisplatin to read-out not stated
Conditions: cisplatin at a dose killing half of control-siRNA cells; exact dose and duration not given
Measured: 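Shift in cisplatin death relative to control siRNA, from -50 (all cells die) to +50 (no cells die); siRNAs harmful on their own scored 0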
Scale: two-siRNA summed score (-2 to +2): higher = both siRNAs protect from cisplatin killing; -2 means both sensitise; mean protection from cisplatin (shift in death) and protection from cisplatin (shift in death), siRNA C: higher = protection from cisplatin killing
Hit rule: 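siRNAs harmful alone (LDH or WST-1) get 0; others get +1 for less and -1 for more cisplatin killing; genes are active when the two siRNAs give the same sign, summing to ±2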
Meaning of the calls: active = both siRNAs shift cisplatin killing the same way; inactive = no consistent shift, or siRNA harmful alone
In all, the deposit lists about 23,000 reagents; below is an unselected part. In the full data, 455 (2%) got an active call. 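Active includes both protection and sensitisation; some change values fall well beyond the stated -50 to +50 range.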 A number with no mark means an inactive call. Further read-outs or replicates are left out here. Reagent sequences are not shown. The record does not give: the amount of reagent.

no.	Gene	two-siRNA summed score (-2 to +2)	mean protection from cisplatin (shift in death) (%)	protection from cisplatin (shift in death), siRNA C (%)
1	HLA-F	1	2	-20.4
2	THAP3	0	2.4	12.9
3	EFCAB11	0	2	2.4
4	IFI44	0	9.8	8.2
5	SIRPG	-1	-12.6	-0.8
6	GTF2H5	0	-1.1	-3.9
7	TRIM47	1	14.5	24.6
8	C1QC	0	-2	-10.9
9	N4BP2L1	0	22.9	41.8
10	CLN5	1	9	21
11	LINC02153	0	-1	3.1
12	LPIN1	0	4.9	5.4
13	TOMM70	1	15	11.3
14	LOC389342	0	26.8	25.9
15	LOC401383	1	12.3	24
16	LOC440833	0	8.4	14.7
17	ID3	0	-10.8	-11.2
18	EYA3	0	11.6	14
19	CSRP3	-1	-9.7	-0.3
20	SPCS1	0	6.2	14
21	TRAPPC13	0	1.3	4.2
22	TMEM106C	-1	-15.1	-11.1
23	SPMIP11	0	4.4	1.6
24	PRSS50	0	2.6	11.3
25	TUBE1	-1	-15.5	-6.6
26	CCDC27	0	-5.7	-17.4
27	MRPL21	0	6.7	8.9
28	ADAMTSL5	0	-2.9	-2.7
29	ANTXR2	1	15.2	11.1
30	LOC441778	0	21.8	9.7
31	OR6B1	0	18.3	25
32	FLJ13305	0	6.2	6.7
33	DACT2	0	-6.2	-25.8

Copied from above (8 entries):
no.	Gene	two-siRNA summed score (-2 to +2)	mean protection from cisplatin (shift in death) (%)	protection from cisplatin (shift in death), siRNA C (%)
5	SIRPG	-1	-12.6	-0.8
6	GTF2H5	0	-1.1	-3.9
7	TRIM47	1	14.5	24.6
8	C1QC	0	-2	-10.9
9	N4BP2L1	0	22.9	41.8
10	CLN5	1	9	21
11	LINC02153	0	-1	3.1
12	LPIN1	0	4.9	5.4

Additional reagents follow.
no.	Gene	two-siRNA summed score (-2 to +2)	mean protection from cisplatin (shift in death) (%)	protection from cisplatin (shift in death), siRNA C (%)
34	ZNF653	0	-1.7	-3.9
35	GOLGA2P10	0	11.4	12.3
36	PERP	0	11	16.7
37	LOC389438	0	6.7	3
38	MUCL1	0	1.9	-5
39	RPL23	0	26.8	21.4
40	LOC442558	0	3.6	8
41	RFX2	0	-12.8	-10
42	NDUFB4	0	1.9	-5.6
43	UPK1A	0	22.1	38.2
44	LOC440767	1	10.3	15.6
45	TMOD3	0	10.1	7.7
46	KRT1	-1	-20.3	-6.2
47	BLCAP	0	8.3	8.7
48	TMPRSS6	0	-2.5	-6
49	ZNF688	0	8.7	21.6
50	CIRBP	0	0.7	-5.1
51	ANKH	0	15	32.4
52	DYRK1B	0	23.5	36.5
53	CCAR1	0	1.8	-2.9
54	LOC401817	0	27.1	8.7
55	RXYLT1	0	7.4	7.5
56	PRKAB1	1	14.6	8.4
57	PDHA2	-1	-9.7	7.5
